A short description of the test: qHTS Assay for Lipid Storage Modulators in Drosophila S3 Cells.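 As to cell number change: cells counted by Cell Tracker Red CMTPX staining in the red channel.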 Conditions: BODIPY lipid droplet fluorescence, 18-24 h; for cell number change: measured here: cell count max response, cells fed with added oleic acid. Summed up: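 Drosophila S3 cells got compounds at several concentrations plus oleic acid (400 uM solution). Laser-scanning cytometry with 488 nm excitation read lipid droplets at 500-530 nm and cells at 575-640 nm. Percent activity was relative to 20 uM Triacsin C.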
(In general: Quantitative high-throughput screening tests each substance at several concentrations.)

Where [1] appears, read: measured here: lipid fluorescence (Fed channel) AC50, cells fed with added oleic acid.
[2] abbreviates: measured here: cell number channel AC50, cells fed with added oleic acid.

Molecules are shown by their SMILES. The list shows a part of the results. Further columns of the screen follow, without active or inactive calls. Compounds called inactive in the main read-out are mostly missing here. The note in brackets gives the kind of curve behind each potency; many fits are weak.

Our source for the cell number change and AC50 values is PubChem BioAssay AID2685 (National Center for Advancing Translational Sciences (NCATS), 2010).

What is called AC50 is the midpoint of the concentration-response curve, whichever way the signal moves. `COc1ccccc1[C@@H]1C(c2cccc(C)c2)=NN(c2ccccc2)[C@H]1C(=O)N1CCOC1=O`: the cell number change was 18.3%. Further, the AC50 under setting [1] was 29.1 µM [rising, single point]. Turning to `COc1ccccc1/C=C/C(=O)OCC(=O)c1c[nH]c2ccccc12`, the cell number change amounted to 3.44%. In addition, the AC50 under setting [1] was 2.31 µM [rising, partial curve].

For the molecule `COc1cccc2c1OC1(C)CC2NC(=O)N1` (stereo unspecified), the cell number change was found to be 13.1%. The AC50 under setting [1] was 29.1 µM [falling, single point]. With `CCCOc1cccc(CN2CCCCC2c2cccnc2)c1` (stereo unspecified), the cell number change amounted to 4.49%. Also, under setting [2], the AC50 was 4.61 µM [rising, single point]. Further, the AC50 under setting [1] is 0.13 µM [rising, full curve]. Consider `COc1ccc(CN2C(=O)[C@@H]3C(c4ccccc4Cl)=NO[C@@H]3C2=O)cc1`, for which the cell number change worked out at 0.39%. Also, under setting [1], the AC50 is 0.731 µM [rising, full curve, poor fit].

For the molecule `C/C=C/c1ccc(OCCCCn2cncn2)c(OC)c1`, the cell number change is -13.7%. Also, the AC50 under setting [1] was 29.1 µM [rising, single point]. Consider `CC(C)(C)OC(=O)N1CCC(c2c(C(=O)NCC3CCN(C4CCCC4)C3)cnn2-c2ccccc2)CC1` (stereo unspecified), for which the cell number change is 2.29%. Turning to `CN(C)c1ccc(NC(=O)CN2C(=O)c3ccccc3C2=O)cc1`, the cell number change was -0.587%. Further, under setting [1], the AC50 was 29.1 µM [falling, single point]. On to `COc1ccccc1CCC(=O)OCC(=O)c1c(N)n(CC(C)C)c(=O)n(C)c1=O`, for which the cell number change is -9.79%. In addition, the AC50 under setting [1] is 4.11 µM [falling, full curve]. As to `O=C(CSc1nc2ncccc2[nH]1)Nc1ccc2c(c1)OCO2`, the cell number change is -24%. For the same molecule, the AC50 under setting [1] was 20.6 µM [falling, single point]. Regarding `Cc1ccc2nc(C(=O)N3CCc4c([nH]c5ccccc45)C3c3ccccn3)cn2c1` (stereo unspecified), the cell number change was 25.1%. The AC50 under setting [1] is 0.103 µM [rising, full curve, poor fit]. With `COc1ccc(N2CCN(C(=O)C3CC(O)CN3S(=O)(=O)c3ccc([N+](=O)[O-])cc3)CC2)cc1` (stereo unspecified), the cell number change is 20%.

Turning to `NC(=O)c1cccc2c(=O)oc3ccccc3c12`, the cell number change was -3.17%. For `Cc1cc(-n2cnc3c(=O)[nH]cnc32)ccc1N`, the cell number change is 15.7%. Besides, the AC50 under setting [1] is 7.31 µM [rising, partial curve].

Consider `CCN(CC)CCNC(=O)NC(=O)c1ccc(Cl)cc1`, for which the cell number change was 16%. Moreover, the AC50 under setting [1] was 0.58 µM [falling, single point]. As to `Nc1nc(Nc2ccccc2)nc(C(F)(F)F)n1`, under setting [1], the AC50 is 0.58 µM [falling, single point]. In the case of `CC(C)(C)C1CCc2onc(C(=O)Nc3ccc4c(c3)OCO4)c2C1` (stereo unspecified), the cell number change stood at 20%. Further, the AC50 under setting [1] is 1.16 µM [falling, single point]. Turning to `O=C(O)c1cc(O)ccc1NC(=O)C(c1ccccc1)c1ccccc1`, the cell number change was determined as 23.9%. Besides, the AC50 under setting [1] is 0.58 µM [rising, single point].

`N#C/C(=C(/O)COC(=O)c1ccc2c(c1)OCCO2)c1nc2ccccc2[nH]1`: the cell number change was 1.95%. Further, the AC50 under setting [1] was 2.31 µM [falling, single point]. Consider `COc1ccc(NS(=O)(=O)c2ccc(Oc3ncccn3)cc2)cc1`, for which the cell number change was -6.98%. Moreover, the AC50 under setting [1] is 2.31 µM [rising, full curve].

`COc1ccc(C(=O)NCCc2nc3cc([N+](=O)[O-])ccc3n2C)cc1`: the cell number change came out at 17.9%. For the same molecule, the AC50 under setting [2] was 2.31 µM [rising, single point]. With `O=C(Nc1ccccc1-c1ccccc1)c1ccccc1`, the cell number change is -1.67%. Also, the AC50 under setting [1] was 14.6 µM [falling, single point]. As for `CCOC(=O)c1cnc(Nc2ccccc2)nc1C(F)(F)F`, the cell number change was -19.3%. For the same molecule, under setting [2], the half-maximal activity concentration (AC50) was 0.092 µM [falling, full curve, poor fit].

As to `CCCc1cc(C(=O)NCc2cccnc2)no1`, the cell number change turned out to be 41.5%. In addition, the AC50 under setting [2] was 29.1 µM [rising, single point].

On to `Cc1c(C(=O)NCCc2ccccc2)oc2ccc(S(=O)(=O)N3CCOCC3)cc12`, for which the cell number change was -39.9%. Also, the AC50 under setting [2] was 29.1 µM [falling, single point]. As to `Cc1[nH]c2ccccc2c1C(c1ccccn1)N1CCCC1` (stereo unspecified), the cell number change is 56%. Under setting [2], the AC50 is 18.4 µM [rising, partial curve, poor fit]. For `CC(=O)Nc1sc(N)nc1-c1ccccc1`, the AC50 reads like this: under setting [2], 4.11 µM [rising, partial curve]; under setting [1], 0.0146 µM [falling, full curve, poor fit].

Turning to `Cc1ccccc1NC(=O)Cc1nc(COC(=O)Cc2ccccc2F)cs1`, the cell number change is -11%. Turning to `O=C(Cn1c(=O)oc2cc(S(=O)(=O)N3CCCC3)ccc21)N1CCCC1`, the cell number change was -32.2%. Further, the AC50 under setting [2] was 14.6 µM [falling, partial curve, poor fit]. `Cc1ccccc1-n1nc(C(=O)O)c(C)c(C#N)c1=O`: the cell number change is -37.6%. Also, under setting [2], the concentration at half-maximal activity (AC50) is 29.1 µM [falling, single point]. Further, under setting [1], the AC50 is 29.1 µM [falling, single point]. In the case of `CN(C)S(=O)(=O)c1cccc(NC(=O)COc2cccc3ccccc23)c1`, the cell number change is -25.3%. In addition, the AC50 under setting [1] is 0.411 µM [rising, partial curve, poor fit].

In the case of `CCOC(=O)/C=C1\SCC(=O)N1CC(=O)NC1CCCCC1`, the cell number change came out at 17.3%. In addition, the AC50 under setting [1] was 1.03 µM [falling, single point].

On to `CCOC(=O)c1ccc(N2C(=O)C=C(N3CCOCC3)C2=O)cc1`, for which the cell number change is -31.2%. Besides, the AC50 under setting [2] is 0.13 µM [falling, full curve, poor fit]. Further, the half-maximal activity concentration (AC50) under setting [1] is 0.13 µM [falling, full curve, poor fit].

On to `COC(=O)c1ccc(-n2c(C)cc(C(=O)CSc3ccc(NC(C)=O)cc3)c2C)cc1`, for which the cell number change turned out to be 93.5%. In addition, the AC50 under setting [1] was 1.84 µM [falling, partial curve, poor fit]. For the molecule `CC1(C)Cc2c(sc(NC(=O)C(=O)N3CCCCC3)c2C(N)=O)CO1`, the cell number change is -18.6%. The AC50 under setting [1] is 29.1 µM [rising, single point]. With `Cc1ccc(C(=O)COC(=O)CCc2nc3ccccc3[nH]c2=O)cc1C`, the cell number change is -9.66%. Take `O=C(Nc1cccc(C(F)(F)F)c1)c1cc2c(=O)c3ccccc3oc2nc1C(F)(F)F`: the cell number change was -24.4%. The AC50 under setting [1] was 8.2 µM [falling, partial curve].

As to `Cc1cc(=O)oc2cc(OC(C)C(=O)NCC3CCC(C(=O)O)CC3)c(Cl)cc12` (stereo unspecified), the cell number change is -18.5%. Besides, the AC50 under setting [1] is 0.146 µM [rising, full curve, poor fit]. In the case of `COc1cc2nc(Cl)nc(NCCO)c2cc1OC`, the cell number change worked out at 35.9%. Moreover, the AC50 under setting [2] is 20.6 µM [rising, single point]. The AC50 under setting [1] is 20.6 µM [rising, partial curve].
